Laboratory results reported in PMC9577956.
Results are given in words; binding and its absence hold for the method and conditions named. In cells and extracts the contact can be indirect. Some entries that bind do so weakly or less than the wild type. Each block holds one molecule with its values, some of them ahead of it.

Sequences of proteins named here, by UniProt entry; tags and fusion partners are left off.
UniProt Q9Z1R2: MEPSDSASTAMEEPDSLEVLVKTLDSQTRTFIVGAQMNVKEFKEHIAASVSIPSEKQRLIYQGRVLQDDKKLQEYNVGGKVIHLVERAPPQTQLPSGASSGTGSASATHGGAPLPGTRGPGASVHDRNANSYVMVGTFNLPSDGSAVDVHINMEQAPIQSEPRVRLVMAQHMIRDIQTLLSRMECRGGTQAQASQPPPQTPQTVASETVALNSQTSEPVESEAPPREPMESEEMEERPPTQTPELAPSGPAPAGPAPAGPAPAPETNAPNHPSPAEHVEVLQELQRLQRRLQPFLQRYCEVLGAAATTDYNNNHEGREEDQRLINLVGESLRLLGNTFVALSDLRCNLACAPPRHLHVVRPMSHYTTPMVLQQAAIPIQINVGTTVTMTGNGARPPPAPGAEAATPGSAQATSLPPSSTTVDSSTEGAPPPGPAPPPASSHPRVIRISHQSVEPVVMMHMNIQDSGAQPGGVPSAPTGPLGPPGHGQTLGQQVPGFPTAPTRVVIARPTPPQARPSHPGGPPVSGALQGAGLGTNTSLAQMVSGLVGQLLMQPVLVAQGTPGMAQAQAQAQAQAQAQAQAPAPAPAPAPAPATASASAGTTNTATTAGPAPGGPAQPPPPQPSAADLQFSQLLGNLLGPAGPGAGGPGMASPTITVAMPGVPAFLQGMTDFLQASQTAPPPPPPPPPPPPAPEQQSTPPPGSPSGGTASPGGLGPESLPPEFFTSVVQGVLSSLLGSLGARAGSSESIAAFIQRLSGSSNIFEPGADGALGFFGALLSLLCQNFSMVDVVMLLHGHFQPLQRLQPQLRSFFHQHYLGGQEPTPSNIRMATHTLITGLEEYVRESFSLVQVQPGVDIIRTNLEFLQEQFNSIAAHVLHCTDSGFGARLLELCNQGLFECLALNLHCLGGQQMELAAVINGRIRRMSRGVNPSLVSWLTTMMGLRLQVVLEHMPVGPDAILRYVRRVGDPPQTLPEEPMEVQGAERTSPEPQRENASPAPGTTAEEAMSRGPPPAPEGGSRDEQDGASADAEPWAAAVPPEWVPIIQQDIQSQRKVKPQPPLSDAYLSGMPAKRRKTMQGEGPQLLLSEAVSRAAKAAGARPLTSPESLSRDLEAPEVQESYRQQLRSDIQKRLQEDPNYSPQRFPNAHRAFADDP
UniProt P63017: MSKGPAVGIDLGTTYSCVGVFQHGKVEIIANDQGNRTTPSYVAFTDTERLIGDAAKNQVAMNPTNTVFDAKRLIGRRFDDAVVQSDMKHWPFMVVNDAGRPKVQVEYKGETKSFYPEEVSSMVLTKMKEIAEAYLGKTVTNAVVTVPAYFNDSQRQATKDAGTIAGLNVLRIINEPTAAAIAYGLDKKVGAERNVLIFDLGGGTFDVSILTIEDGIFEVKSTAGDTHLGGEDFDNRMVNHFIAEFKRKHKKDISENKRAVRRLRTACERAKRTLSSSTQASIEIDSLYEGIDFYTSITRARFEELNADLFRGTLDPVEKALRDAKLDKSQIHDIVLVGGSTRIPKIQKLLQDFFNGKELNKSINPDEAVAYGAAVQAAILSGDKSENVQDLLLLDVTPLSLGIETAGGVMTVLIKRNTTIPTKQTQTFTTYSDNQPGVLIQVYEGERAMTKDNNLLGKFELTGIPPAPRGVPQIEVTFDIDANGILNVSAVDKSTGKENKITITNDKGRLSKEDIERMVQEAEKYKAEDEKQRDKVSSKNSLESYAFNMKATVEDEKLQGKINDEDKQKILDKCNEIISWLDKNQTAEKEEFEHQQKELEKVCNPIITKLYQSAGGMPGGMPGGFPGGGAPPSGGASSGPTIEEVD
UniProt Q8R313: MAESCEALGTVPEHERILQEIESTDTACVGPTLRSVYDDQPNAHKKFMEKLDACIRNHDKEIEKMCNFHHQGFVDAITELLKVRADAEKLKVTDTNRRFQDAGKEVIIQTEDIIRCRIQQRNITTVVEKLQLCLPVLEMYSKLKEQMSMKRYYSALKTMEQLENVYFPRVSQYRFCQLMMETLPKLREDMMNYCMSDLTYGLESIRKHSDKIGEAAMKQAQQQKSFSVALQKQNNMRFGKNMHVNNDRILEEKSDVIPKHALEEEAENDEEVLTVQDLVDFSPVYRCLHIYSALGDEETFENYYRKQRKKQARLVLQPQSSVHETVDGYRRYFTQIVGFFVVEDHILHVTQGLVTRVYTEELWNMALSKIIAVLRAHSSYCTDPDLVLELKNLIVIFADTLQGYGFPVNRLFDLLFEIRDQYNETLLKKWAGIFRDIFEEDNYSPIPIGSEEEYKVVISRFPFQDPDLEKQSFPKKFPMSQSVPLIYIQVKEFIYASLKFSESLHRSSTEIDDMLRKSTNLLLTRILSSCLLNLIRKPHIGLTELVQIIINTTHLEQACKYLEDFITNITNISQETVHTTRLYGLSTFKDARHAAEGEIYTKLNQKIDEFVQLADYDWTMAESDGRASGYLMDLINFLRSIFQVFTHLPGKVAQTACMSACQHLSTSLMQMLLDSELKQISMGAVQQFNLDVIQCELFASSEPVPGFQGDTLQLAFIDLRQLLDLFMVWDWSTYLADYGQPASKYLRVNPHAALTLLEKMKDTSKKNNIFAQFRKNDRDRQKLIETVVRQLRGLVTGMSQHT
UniProt O35382: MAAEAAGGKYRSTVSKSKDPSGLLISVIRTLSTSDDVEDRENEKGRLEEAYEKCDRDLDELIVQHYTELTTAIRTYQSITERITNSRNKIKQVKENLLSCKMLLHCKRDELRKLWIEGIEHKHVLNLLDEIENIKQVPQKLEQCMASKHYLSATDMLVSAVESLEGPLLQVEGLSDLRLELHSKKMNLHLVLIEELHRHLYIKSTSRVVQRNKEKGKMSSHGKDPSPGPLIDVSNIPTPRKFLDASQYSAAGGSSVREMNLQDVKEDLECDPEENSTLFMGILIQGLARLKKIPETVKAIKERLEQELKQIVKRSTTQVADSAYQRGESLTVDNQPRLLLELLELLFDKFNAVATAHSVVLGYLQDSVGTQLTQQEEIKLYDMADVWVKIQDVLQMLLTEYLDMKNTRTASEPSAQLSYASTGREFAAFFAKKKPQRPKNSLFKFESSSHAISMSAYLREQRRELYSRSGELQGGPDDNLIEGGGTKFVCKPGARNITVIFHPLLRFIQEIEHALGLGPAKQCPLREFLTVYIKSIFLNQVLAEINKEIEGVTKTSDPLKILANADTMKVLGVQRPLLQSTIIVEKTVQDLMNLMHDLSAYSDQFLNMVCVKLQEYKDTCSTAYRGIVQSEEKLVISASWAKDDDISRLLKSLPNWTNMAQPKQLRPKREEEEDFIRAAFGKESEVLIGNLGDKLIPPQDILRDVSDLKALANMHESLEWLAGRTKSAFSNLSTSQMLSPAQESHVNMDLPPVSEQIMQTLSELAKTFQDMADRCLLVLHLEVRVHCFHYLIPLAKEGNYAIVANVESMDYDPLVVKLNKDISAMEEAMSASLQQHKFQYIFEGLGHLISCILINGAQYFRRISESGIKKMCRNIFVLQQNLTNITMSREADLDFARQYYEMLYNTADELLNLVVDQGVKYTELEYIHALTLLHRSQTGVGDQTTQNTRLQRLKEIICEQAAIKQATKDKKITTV
UniProt O35250: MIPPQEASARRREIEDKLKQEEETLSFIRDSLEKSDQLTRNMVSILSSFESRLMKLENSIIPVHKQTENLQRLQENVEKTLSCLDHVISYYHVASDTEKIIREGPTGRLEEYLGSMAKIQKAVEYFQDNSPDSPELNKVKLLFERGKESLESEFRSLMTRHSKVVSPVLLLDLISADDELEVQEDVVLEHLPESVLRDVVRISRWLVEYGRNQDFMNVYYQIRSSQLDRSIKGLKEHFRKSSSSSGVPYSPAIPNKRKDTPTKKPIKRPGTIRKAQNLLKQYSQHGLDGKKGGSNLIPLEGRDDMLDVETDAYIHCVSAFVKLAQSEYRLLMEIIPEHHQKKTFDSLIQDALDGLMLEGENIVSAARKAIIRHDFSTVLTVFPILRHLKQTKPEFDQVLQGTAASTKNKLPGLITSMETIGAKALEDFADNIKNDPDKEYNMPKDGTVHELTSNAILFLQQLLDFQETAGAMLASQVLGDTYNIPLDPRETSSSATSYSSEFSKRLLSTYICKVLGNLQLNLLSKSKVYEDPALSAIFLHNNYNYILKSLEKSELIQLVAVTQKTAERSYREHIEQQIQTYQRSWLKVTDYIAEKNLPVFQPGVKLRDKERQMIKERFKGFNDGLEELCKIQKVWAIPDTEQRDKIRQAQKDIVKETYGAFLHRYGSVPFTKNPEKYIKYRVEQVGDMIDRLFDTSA

What was measured:
[1] = molecular target: Bag6 (not stated (endogenous in rodent liver; rats and mice used)) (UniProt Q9Z1R2); assay: co-IP; liver cytosol (100,000 x g supernatant); primary antibodies against Bag6, Hsc70 or Tsg101 and Protein A/G Plus agarose beads; immunoblot
[2] = molecular target: heat shock cognate protein of 70 kDa (Hsc70) (not stated (endogenous in rodent liver; rats and mice used)) (UniProt P63017); assay: as above
[3] = molecular target: Bag6 (not stated (endogenous in rodent liver; rats and mice used)) (UniProt Q9Z1R2); assay: co-IP; isolated liver LE/MVBs solubilised in a mild detergent/low salt buffer; primary antibodies and Protein A/G Plus agarose beads; immunoblot
[4] = molecular target: heat shock cognate protein of 70 kDa (Hsc70) (not stated (endogenous in rodent liver; rats and mice used)) (UniProt P63017); assay: as above
[5] = molecular target: Exoc6 (mouse (endogenous in liver LE/MVBs)) (UniProt Q8R313); assay: co-IP; LE/MVBs from livers of 4 m and 22 m old mice solubilised in a mild detergent/low salt buffer; IP with antibodies against Exoc4, RalA or Exoc6 and Protein A/G Plus agarose beads; immunoblot
[6] = molecular target: Exoc4 (mouse (endogenous in liver LE/MVBs)) (UniProt O35382); assay: co-IP; isolated liver LE/MVBs solubilised in a mild detergent/low salt buffer; primary antibodies and Protein A/G Plus agarose beads; immunoblot

- binding [3]: binds
- binding [4]: binds
- binding [5]: binds
Molecule: Exoc4 (from UniProt O35382 1-975)
- binding [1]: no binding (condition: in the cytosol fraction)
- binding [2]: no binding (condition: in the cytosol fraction)

- binding [3]: binds
- binding [4]: binds
Molecule: Exoc7 (from UniProt O35250 1-697)
- binding [1]: no binding (condition: in the cytosol fraction)
- binding [2]: no binding (condition: in the cytosol fraction)

- binding [6]: no binding
B1: lysosome-associated membrane protein 1 (LAMP-1) (protein, UniProt P11438 25-406)
chain: LFEVKNNGTTCIMASFSASFLTTYETANGSQIVNISLPASAEVLKNGSSCGKENVSDPSLTITFGRGYLLTLNFTKNTTRYSVQHMYFTYNLSDTEHFPNAISKEIYTMDSTTDIKADINKAYRCVSDIRVYMKNVTVVLRDATIQAYLSSGNFSKEETHCTQDGPSPTTGPPSPSPPLVPTNPTVSKYNVTGNNGTCLLASMALQLNITYLKKDNKTVTRAFNISPNDTSSGSCGINLVTLKVENKNRALELQFGMNASSSLFFLQGVRLNMTLPDALVPTFSISNHSLKALQATVGNSYKCNTEEHIFVSKMLSLNVFSVQVQAFKVDSDRFGSVEECVQDGNNMLIPIAVGGALAGLVLIVLIAYLIGRKRSHAGYQTI

- binding [6]: binds
B2: GTPase RalA (protein, UniProt P63321 1-206)
chain: MAANKPKGQNSLALHKVIMVGSGGVGKSALTLQFMYDEFVEDYEPTKADSYRKKVVLDGEEVQIDILDTAGQEDYAAIRDNYFRSGEGFLCVFSITEMESFAATADFREQILRVKEDENVPFLLVGNKSDLEDKRQVSVEEAKNRADQWNVNYVETSAKTRANVDKVFFDLMREIRARKMEDSKEKNGKKKRKSLAKRIRERCCIL
